No constants are given. Whether binding was seen depends on the method and setting. Binding seen in cells or lysates may run through a third protein. Here binding means that the protein was enriched with, or labelled near, the bait; the list need not be complete. Sequences can lack the tags named with a protein.
Molecular target: T1, TurboID N-terminally fused to OTUD1 (human) (UniProt Q5VV17)
T1 sequence: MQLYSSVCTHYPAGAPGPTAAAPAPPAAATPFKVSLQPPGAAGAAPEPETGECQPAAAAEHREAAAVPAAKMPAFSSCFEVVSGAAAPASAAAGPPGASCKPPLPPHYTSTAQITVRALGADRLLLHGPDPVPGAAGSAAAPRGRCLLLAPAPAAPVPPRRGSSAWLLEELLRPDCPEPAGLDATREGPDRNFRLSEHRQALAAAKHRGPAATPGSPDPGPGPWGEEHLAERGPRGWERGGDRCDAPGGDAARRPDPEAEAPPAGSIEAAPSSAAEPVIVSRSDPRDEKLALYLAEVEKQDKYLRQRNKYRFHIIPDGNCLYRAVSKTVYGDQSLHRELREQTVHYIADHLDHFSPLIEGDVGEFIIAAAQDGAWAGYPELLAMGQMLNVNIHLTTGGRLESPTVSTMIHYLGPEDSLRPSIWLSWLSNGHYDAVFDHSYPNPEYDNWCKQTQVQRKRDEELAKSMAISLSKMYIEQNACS
Assay: proximity labelling; TurboID-OTUD1 (control: TurboID only) induced with doxycycline in HEK 293 cells, 50 uM biotin for 1 h, lysis in 8 M urea buffer, streptavidin sepharose, on-bead trypsin digestion, mass spectrometry with label-free quantification

By UniProt entry, the sequences of proteins in these tests, tags left out.
UniProt Q14145: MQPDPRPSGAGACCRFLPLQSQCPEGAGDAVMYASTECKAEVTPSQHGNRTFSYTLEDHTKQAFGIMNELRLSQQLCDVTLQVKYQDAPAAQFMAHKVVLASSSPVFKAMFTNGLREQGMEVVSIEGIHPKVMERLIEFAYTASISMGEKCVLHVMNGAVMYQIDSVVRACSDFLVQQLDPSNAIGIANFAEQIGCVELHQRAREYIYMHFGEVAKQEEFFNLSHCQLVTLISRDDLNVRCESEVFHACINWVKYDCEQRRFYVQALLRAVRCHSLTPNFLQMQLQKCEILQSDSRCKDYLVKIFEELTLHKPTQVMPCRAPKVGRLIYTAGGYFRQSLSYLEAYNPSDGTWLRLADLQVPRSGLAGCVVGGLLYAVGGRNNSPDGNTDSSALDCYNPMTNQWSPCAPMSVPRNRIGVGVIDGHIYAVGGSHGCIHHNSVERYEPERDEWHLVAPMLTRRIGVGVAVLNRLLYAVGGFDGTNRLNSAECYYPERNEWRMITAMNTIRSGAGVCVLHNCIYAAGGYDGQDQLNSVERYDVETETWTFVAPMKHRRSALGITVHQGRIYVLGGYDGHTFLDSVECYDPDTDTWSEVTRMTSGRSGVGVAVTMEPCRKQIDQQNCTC

**Q.** How did the binding turn out when “E3-ligase KEAP1 (from UniProt Q14145 1-624)” was run?
**A.** The binding was “binds”.

B1: peroxiredoxin 4 (PRDX4) (protein, UniProt Q13162 38-271)
chain: WETEERPRTREEECHFYAGGQVYPGEASRVSVADHSLHLSKAKISKPAPYWEGTAVIDGEFKELKLTDYRGKYLVFFFYPLDFTFVCPTEIIAFGDRLEEFRSINTEVVACSVDSQFTHLAWINTPRRQGGLGPIRIPLLSDLTHQISKDYGVYLEDSGHTLRGLFIIDDKGILRQITLNDLPVGRSVDETLRLVQAFQYTDKHGEVCPAGWKPGSETIIPDPAGKLKYFDKLN
**Q.** For B1, which binding is on record?
**A.** Its binding is “binds”.

From publication PMC9649770
